Results published in the supplement of paper PMC10849652.
Some of the results follow.

Amino acid sequences for entries named in this document (tags omitted). A change or cut given only in a name is not applied to a line headed by its entry.
UniProt Q3ZAQ7: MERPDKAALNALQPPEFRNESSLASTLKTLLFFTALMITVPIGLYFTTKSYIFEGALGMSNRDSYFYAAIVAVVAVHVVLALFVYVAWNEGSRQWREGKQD
UniProt Q8TBZ3: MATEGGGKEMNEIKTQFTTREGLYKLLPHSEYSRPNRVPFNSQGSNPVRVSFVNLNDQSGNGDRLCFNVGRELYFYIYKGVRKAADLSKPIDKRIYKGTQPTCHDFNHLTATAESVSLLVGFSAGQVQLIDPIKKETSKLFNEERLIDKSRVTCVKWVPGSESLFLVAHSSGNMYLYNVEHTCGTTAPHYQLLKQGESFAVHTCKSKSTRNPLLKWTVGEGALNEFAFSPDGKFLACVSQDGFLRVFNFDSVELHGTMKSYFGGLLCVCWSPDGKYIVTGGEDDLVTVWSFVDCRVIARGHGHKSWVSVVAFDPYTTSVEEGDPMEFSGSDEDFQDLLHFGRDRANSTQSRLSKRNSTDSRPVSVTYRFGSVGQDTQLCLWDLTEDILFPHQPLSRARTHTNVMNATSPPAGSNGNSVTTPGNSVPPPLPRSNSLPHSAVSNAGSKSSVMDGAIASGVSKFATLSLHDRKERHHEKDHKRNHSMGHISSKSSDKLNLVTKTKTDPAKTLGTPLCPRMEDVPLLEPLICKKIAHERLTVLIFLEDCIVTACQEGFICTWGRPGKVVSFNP
UniProt Q2M389: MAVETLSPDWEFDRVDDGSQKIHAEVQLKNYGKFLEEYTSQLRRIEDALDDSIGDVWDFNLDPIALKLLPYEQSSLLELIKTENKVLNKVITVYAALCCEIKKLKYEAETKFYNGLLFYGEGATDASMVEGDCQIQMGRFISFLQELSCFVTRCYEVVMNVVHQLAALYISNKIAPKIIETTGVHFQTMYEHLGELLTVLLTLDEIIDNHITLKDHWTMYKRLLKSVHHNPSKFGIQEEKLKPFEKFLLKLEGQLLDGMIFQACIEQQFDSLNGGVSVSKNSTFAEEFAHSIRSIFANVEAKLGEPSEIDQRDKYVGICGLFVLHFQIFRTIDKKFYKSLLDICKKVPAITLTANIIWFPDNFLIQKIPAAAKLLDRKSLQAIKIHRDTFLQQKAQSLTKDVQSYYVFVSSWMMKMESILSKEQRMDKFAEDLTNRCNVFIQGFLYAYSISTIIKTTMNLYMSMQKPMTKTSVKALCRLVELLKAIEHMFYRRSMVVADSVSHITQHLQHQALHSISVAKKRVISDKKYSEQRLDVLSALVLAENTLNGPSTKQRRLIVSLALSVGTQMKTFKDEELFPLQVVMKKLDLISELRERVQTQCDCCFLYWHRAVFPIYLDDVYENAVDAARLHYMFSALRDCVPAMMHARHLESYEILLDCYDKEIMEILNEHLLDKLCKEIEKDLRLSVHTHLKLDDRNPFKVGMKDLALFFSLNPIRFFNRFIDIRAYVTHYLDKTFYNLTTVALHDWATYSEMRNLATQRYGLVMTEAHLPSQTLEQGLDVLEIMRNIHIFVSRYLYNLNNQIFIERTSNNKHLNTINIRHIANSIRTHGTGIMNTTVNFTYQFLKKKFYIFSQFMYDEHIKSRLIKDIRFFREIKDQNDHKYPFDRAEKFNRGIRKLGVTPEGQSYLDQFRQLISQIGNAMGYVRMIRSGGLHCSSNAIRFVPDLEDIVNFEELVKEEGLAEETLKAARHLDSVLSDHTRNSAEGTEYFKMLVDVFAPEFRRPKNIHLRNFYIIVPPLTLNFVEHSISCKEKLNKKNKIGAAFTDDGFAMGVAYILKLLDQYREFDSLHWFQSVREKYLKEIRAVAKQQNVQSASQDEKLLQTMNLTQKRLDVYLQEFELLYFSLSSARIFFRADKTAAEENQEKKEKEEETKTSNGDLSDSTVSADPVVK
UniProt O95785: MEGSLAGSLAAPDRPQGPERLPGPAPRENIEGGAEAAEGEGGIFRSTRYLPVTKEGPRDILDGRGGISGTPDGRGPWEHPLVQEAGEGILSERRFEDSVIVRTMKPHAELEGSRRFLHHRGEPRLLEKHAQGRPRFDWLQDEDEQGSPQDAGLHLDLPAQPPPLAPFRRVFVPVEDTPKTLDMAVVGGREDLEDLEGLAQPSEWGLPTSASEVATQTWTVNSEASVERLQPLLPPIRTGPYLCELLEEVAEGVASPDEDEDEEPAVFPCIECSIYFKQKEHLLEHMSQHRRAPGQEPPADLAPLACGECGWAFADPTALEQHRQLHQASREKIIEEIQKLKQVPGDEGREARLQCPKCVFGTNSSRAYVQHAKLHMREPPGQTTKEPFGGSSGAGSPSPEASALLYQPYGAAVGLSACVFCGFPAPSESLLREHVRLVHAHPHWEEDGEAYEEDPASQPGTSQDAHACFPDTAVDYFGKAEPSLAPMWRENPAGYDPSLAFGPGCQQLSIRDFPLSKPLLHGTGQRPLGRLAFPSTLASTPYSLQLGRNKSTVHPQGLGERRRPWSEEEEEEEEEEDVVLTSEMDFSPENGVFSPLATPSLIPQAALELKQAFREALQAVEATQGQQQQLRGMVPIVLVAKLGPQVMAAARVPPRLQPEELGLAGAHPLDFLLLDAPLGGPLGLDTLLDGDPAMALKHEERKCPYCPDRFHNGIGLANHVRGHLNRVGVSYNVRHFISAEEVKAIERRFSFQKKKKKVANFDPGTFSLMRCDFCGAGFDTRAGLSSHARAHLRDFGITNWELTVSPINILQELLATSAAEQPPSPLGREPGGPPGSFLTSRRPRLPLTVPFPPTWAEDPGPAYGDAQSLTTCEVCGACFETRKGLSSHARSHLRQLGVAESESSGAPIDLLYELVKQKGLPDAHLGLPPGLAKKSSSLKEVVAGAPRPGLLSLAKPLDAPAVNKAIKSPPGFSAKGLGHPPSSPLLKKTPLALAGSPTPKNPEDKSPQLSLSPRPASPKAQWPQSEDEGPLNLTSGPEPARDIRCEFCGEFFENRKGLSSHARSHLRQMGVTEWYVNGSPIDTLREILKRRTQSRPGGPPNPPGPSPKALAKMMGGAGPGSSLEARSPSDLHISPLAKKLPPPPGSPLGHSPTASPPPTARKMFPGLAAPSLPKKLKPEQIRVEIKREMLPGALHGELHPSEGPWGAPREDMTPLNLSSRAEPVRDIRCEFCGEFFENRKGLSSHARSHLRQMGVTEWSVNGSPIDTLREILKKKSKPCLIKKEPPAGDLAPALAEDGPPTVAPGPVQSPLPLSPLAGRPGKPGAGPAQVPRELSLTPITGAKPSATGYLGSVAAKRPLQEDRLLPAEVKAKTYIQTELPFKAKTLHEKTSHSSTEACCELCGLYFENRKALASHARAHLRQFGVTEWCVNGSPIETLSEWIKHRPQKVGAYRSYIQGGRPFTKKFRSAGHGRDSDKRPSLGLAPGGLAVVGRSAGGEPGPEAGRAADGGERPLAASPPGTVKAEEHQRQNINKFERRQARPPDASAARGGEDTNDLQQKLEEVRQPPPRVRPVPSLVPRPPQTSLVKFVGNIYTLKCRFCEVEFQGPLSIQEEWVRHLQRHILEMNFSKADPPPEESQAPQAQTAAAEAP
UniProt P23025: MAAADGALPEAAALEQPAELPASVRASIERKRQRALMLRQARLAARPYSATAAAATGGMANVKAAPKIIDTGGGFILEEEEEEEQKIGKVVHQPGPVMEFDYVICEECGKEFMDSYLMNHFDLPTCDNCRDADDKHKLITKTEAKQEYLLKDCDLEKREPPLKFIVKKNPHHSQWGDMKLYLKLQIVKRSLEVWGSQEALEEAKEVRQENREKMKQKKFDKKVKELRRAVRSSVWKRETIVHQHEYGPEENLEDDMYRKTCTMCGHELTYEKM
UniProt Q8TF74: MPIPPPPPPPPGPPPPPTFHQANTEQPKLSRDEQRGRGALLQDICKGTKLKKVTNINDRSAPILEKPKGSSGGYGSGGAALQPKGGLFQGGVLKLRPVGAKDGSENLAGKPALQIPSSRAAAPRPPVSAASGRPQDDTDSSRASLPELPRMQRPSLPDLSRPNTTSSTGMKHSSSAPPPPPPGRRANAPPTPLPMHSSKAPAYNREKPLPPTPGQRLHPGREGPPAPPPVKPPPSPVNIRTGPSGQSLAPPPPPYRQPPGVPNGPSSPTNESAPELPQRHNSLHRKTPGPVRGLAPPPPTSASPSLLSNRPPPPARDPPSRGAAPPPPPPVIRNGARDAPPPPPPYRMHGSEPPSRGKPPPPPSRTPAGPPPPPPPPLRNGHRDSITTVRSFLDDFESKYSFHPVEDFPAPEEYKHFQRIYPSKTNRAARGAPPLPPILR
UniProt Q15007: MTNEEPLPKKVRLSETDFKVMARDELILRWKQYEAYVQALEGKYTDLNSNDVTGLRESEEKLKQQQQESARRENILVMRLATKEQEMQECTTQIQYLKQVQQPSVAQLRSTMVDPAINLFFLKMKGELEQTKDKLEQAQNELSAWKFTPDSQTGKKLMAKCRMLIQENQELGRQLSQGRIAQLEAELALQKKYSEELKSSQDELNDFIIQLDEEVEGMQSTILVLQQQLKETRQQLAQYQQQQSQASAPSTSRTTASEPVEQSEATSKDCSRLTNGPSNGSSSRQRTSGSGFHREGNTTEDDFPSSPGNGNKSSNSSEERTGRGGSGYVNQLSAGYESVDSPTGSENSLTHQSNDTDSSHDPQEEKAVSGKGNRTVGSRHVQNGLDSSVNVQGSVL
UniProt A5D8V6: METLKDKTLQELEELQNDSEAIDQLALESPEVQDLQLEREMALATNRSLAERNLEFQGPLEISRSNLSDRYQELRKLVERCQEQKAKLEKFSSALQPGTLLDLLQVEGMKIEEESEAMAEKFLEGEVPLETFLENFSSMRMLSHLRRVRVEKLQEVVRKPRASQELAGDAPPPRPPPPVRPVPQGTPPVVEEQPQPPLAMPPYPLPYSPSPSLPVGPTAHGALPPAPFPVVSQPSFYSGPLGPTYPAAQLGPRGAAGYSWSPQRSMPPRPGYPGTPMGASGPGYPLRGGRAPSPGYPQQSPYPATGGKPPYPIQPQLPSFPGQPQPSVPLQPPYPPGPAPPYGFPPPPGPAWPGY
UniProt Q9H1Z4: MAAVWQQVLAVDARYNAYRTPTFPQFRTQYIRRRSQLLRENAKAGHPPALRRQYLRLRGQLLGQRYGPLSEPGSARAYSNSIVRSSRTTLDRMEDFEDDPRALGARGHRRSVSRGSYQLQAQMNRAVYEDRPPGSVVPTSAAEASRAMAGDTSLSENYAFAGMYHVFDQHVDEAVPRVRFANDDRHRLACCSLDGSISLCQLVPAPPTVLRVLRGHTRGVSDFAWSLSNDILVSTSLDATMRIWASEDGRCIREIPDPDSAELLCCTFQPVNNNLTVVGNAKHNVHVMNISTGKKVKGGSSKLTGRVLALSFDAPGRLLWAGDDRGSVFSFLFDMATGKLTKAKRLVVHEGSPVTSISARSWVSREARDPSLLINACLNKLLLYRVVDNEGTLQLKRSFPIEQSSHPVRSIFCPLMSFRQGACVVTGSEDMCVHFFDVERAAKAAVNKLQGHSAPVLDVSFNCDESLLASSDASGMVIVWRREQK
UniProt Q6RFH5: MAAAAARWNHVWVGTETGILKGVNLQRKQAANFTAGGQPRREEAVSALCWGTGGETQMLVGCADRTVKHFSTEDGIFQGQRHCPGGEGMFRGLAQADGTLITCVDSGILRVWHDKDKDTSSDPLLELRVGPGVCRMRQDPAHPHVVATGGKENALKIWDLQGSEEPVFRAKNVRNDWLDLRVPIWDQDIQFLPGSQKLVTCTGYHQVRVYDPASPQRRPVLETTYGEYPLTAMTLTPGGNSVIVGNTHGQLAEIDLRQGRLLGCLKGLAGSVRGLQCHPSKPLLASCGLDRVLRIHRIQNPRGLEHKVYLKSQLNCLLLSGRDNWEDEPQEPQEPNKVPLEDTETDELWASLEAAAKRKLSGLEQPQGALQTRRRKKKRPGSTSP
UniProt Q96FK6: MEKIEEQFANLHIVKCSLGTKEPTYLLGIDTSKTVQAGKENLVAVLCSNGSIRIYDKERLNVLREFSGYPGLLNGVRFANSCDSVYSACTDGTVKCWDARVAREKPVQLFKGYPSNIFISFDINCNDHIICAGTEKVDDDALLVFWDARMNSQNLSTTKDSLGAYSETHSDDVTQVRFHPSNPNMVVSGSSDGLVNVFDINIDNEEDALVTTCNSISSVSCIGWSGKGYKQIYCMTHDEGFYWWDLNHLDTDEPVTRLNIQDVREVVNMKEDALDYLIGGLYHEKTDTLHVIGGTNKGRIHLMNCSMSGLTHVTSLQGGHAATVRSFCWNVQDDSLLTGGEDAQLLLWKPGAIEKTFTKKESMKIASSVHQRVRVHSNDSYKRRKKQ
UniProt Q969T9: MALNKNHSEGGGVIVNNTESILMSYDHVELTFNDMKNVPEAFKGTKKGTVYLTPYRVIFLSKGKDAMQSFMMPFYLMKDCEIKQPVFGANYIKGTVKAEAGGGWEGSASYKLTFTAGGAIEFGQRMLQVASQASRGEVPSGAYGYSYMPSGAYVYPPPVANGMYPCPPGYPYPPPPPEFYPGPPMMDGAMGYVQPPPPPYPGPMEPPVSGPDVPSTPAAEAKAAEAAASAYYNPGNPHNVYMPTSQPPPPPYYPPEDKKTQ

How the values were obtained:
Assay in all cases: log2 fold change, soluble protein after heating vs DMSO (PISA); higher = thermal stabilisation; K562 lysate, 10 uM; active = over 0.2 and 3.5 SD of the protein, either way, in both replicates (recomputed)
ibrutinib = compound: C=CC(=O)N1CCC[C@@H](n2nc(-c3ccc(Oc4ccccc4)cc3)c3c(N)ncnc32)C1 [ibrutinib]
Outline: (§1)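 Quantification was by TMTpro 16plex LC-MS/MS with equalised channel sums, applied to the supernatant after 21,000xg for 90 min. Samples were crude K562 extract at 1 mg/mL protein in PBS pH 7.4 with 1 mM MgCl2, treated with 10 μM compound for 30 min, heated for 3 min across 48°C-58°C, pooled and brought to 0.5% NP-40 at 4°C. Values are log-two fold changes in thermal stability relative to solvent controls, from duplicates.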

[1] = compound: CC(=O)c1cnc2ccc(-c3cc(Cl)c(O)c(Cl)c3)nc2c1N[C@H]1CC[C@H](CN(C)C)CC1
Outline: as §1

ralimetinib = compound: CC(C)(C)Cn1c(N)nc2ccc(-c3[nH]c(C(C)(C)C)nc3-c3ccc(F)cc3)nc21 [ralimetinib]
Outline: as §1

[2] = compound: CC(C)(O)CC(=O)NCCn1ccc2ncnc(Nc3ccc(Oc4cccc(C(F)(F)F)c4)c(Cl)c3)c21
Outline: as §1

[3] = compound: CC(C)C1=C2N=C(C=C(N2N=C1)NCC3=CC=CC=C3)NCCCCCCN
Outline: as §1

[4] = compound: CC1=C(C(CC(=O)N1)C2=CC=C(C=C2)C(F)(F)F)C(=O)NC3=C(C=C4C(=C3)C=NN4)F
Outline: as §1

[5] = compound: CC1=C(C2=C(C=C1)C(=O)C3=CC=CC=C3N2CCCN)C
Outline: as §1

[6] = compound: CC1=C(C=C(C=C1)NC(=O)C2=CC(=CC=C2)C(C)(C)C#N)NC3=CC4=C(C=C3)N=CN(C4=O)C
Outline: as §1

[7] = compound: CC1=C(C=C(C=C1)NC(=O)C2=CC(=CC=C2)N(C)C)NC(=O)C3=CC=C(C=C3)O
Outline: as §1

[8] = compound: CC1=CC=C(C=C1)SC2=C3C=C(SC3=CN=C2)C(=O)N
Outline: as §1

Measured: log2 fold change

WAC (UniProt Q9BTA9)
inactive: ibrutinib -0.062 | [1] -0.008 | ralimetinib -0.012 | [2] -0.054 | [3] -0.009 | [4] 0.046 | [5] 0.034 | [6] -0.016 | [7] 0.022 | [8] 0.004

WWC2 isoform 6 (UniProt Q6AWC2)
inactive: ibrutinib -0.079 | [1] 0.002 | ralimetinib 0.068 | [2] 0.028 | [3] 0.026 | [4] -0.022 | [5] -0.024 | [6] -0.017 | [7] -0.029 | [8] -0.046

VMP1 (UniProt Q96GC9)
inactive: ibrutinib -0.158 | [1] -0.003 | ralimetinib 0.022 | [2] -0.02 | [3] 0.025 | [4] -0.016 | [5] 0.022 | [6] 0.107 | [7] 0.032 | [8] -0.086

WDSUB1 (UniProt Q8N9V3)
inactive: ibrutinib -0.004 | [1] -0.008 | ralimetinib -0.027 | [2] -0.017 | [3] -0.009 | [4] -0.054 | [5] 0.004 | [6] 0.02 | [7] -0.014 | [8] -0.04

VMA21 (UniProt Q3ZAQ7)
inactive: ibrutinib -0.065 | [1] -0.029 | ralimetinib 0.086 | [2] -0.071 | [3] 0.063 | [4] -0.141 | [5] -0.038 | [6] 0.085 | [7] 0.042 | [8] -0.002

WDR55 (UniProt Q9H6Y2)
inactive: ibrutinib 0.047 | [1] -0.027 | ralimetinib 0.039 | [2] 0.01 | [3] -0.018 | [4] -0.011 | [5] -0.04 | [6] 0 | [7] 0.022 | [8] 0.012

WDR20 isoform 7 (UniProt Q8TBZ3)
inactive: ibrutinib 0.003 | [1] -0.001 | ralimetinib 0.088 | [2] -0.023 | [3] -0.019 | [4] 0.087 | [5] 0.044 | [6] 0.058 | [7] -0.003 | [8] 0.014

Fetched one by one from the entries so far, 2 records:
WDR55 (UniProt Q9H6Y2)
inactive: ibrutinib 0.047 | [1] -0.027 | ralimetinib 0.039 | [2] 0.01 | [3] -0.018 | [4] -0.011 | [5] -0.04 | [6] 0 | [7] 0.022 | [8] 0.012

VMA21 (UniProt Q3ZAQ7)
inactive: ibrutinib -0.065 | [1] -0.029 | ralimetinib 0.086 | [2] -0.071 | [3] 0.063 | [4] -0.141 | [5] -0.038 | [6] 0.085 | [7] 0.042 | [8] -0.002

(listing goes on)

WASHC4 (UniProt Q2M389)
inactive: ibrutinib 0.007 | [1] 0.007 | ralimetinib -0.026 | [2] 0.012 | [3] -0.027 | [4] -0.008 | [5] 0.009 | [6] 0.049 | [7] 0.022 | [8] -0.005

WDR48 (UniProt Q8TAF3)
inactive: ibrutinib 0.007 | [1] -0.012 | ralimetinib 0.017 | [2] -0.01 | [3] -0.032 | [4] 0.008 | [5] -0.032 | [6] 0.01 | [7] -0.01 | [8] -0.013

WDR70 (UniProt Q9NW82)
inactive: ibrutinib 0.031 | [1] 0.025 | ralimetinib 0.008 | [2] 0.09 | [3] -0.057 | [4] -0.034 | [5] 0.01 | [6] -0.032 | [7] -0.021 | [8] -0.01

VPS13D (UniProt Q5THJ4)
inactive: ibrutinib -0.059 | [1] -0.001 | ralimetinib 0.029 | [2] -0.197 | [3] -0.016 | [4] 0.038 | [5] -0.077 | [6] 0.072 | [7] -0.026 | [8] 0.048

WIZ isoform 3 (UniProt O95785)
inactive: ibrutinib 0.049 | [1] -0.016 | ralimetinib -0.027 | [2] 0 | [3] 0.021 | [4] -0.025 | [5] 0.012 | [6] -0.036 | [7] 0.006 | [8] 0.015

VPS51 (UniProt Q9UID3)
inactive: ibrutinib 0.038 | [1] 0.004 | ralimetinib 0.017 | [2] -0.05 | [3] 0.018 | [4] 0.027 | [5] -0.007 | [6] -0.038 | [7] 0.018 | [8] 0.002

XPA (UniProt P23025)
inactive: ibrutinib 0.067 | [1] 0.142 | ralimetinib 0.019 | [2] 0 | [3] -0.051 | [4] -0.018 | [5] -0.086 | [6] 0.132 | [7] -0.021 | [8] 0.064

VRK2 (UniProt Q86Y07)
inactive: ibrutinib 0.049 | [1] 0.106 | ralimetinib 0.155 | [2] -0.041 | [3] -0.037 | [4] -0.036 | [5] -0.026 | [6] -0.021 | [7] 0.023 | [8] 0.149

WIPF2 (UniProt Q8TF74)
inactive: ibrutinib 0.051 | [1] -0.024 | ralimetinib 0 | [2] -0.026 | [3] 0.026 | [4] 0.023 | [5] -0.005 | [6] -0.016 | [7] -0.008 | [8] 0.005

VPS37B (UniProt Q9H9H4)
inactive: ibrutinib 0.024 | [1] 0.014 | ralimetinib -0.055 | [2] 0.009 | [3] -0.028 | [4] 0 | [5] -0.008 | [6] 0.019 | [7] 0.012 | [8] 0.028

VKORC1 (UniProt Q9BQB6)
inactive: ibrutinib -0.041 | [1] -0.056 | ralimetinib -0.012 | [2] -0.078 | [3] 0.019 | [4] 0.025 | [5] -0.003 | [6] 0.195 | [7] 0.03 | [8] -0.108

WDR62 isoform 4 (UniProt O43379)
inactive: ibrutinib -0.023 | [1] 0.027 | ralimetinib 0.013 | [2] -0.051 | [3] -0.007 | [4] 0.033 | [5] -0.016 | [6] 0.023 | [7] -0.002 | [8] -0.029

WTAP (UniProt Q15007)
inactive: ibrutinib 0.004 | [1] 0.003 | ralimetinib 0.042 | [2] -0.04 | [3] -0.011 | [4] -0.008 | [5] -0.023 | [6] -0.025 | [7] 0.058 | [8] 0.026

VPS37C (UniProt A5D8V6)
inactive: ibrutinib -0.029 | [1] 0.002 | ralimetinib -0.068 | [2] -0.063 | [3] 0.006 | [4] -0.014 | [5] -0.069 | [6] -0.077 | [7] 0.007 | [8] -0.01

WASHC2C (UniProt Q9Y4E1)
inactive: ibrutinib 0.045 | [1] -0.044 | ralimetinib 0.02 | [2] -0.048 | [3] -0.045 | [4] 0.041 | [5] -0.01 | [6] -0.009 | [7] 0.014 | [8] -0.036

WDR13 (UniProt Q9H1Z4)
inactive: ibrutinib 0.031 | [1] 0.037 | ralimetinib 0.092 | [2] -0.053 | [3] -0.031 | [4] 0.017 | [5] -0.031 | [6] 0.048 | [7] -0.004 | [8] -0.008

WDR26, A0A499FIZ0
inactive: ibrutinib -0.024 | [1] -0.004 | ralimetinib 0.019 | [2] -0.021 | [3] -0.03 | [4] -0.002 | [5] 0.003 | [6] 0 | [7] 0.013 | [8] 0.007

WDR74 (UniProt Q6RFH5)
inactive: ibrutinib -0.009 | [1] 0.03 | ralimetinib 0.018 | [2] 0.066 | [3] 0.06 | [4] -0.003 | [5] -0.036 | [6] -0.001 | [7] -0.005 | [8] 0.052

WDR89 (UniProt Q96FK6)
inactive: ibrutinib 0.024 | [1] 0 | ralimetinib 0.037 | [2] -0.06 | [3] -0.044 | [4] 0.049 | [5] -0.007 | [6] 0.06 | [7] 0.007 | [8] -0.028

WBP2 (UniProt Q969T9)
inactive: ibrutinib 0.028 | [1] -0.027 | ralimetinib -0.052 | [2] 0.013 | [3] 0.015 | [4] -0.003 | [5] -0.032 | [6] -0.039 | [7] -0.015 | [8] -0.03

VPS13B (UniProt Q7Z7G8)
inactive: ibrutinib -0.052 | [1] 0.056 | ralimetinib 0.083 | [2] 0.036 | [3] -0.183 | [4] -0.009 | [5] 0.041 | [6] 0.056 | [7] -0.02 | [8] -0.038
